Measurements taken from PMC11613458.
Results are given in words; binding and its absence hold for the method and conditions named. Binding seen in cells or lysates may run through a third protein. For some assays here: Binding can be weak; no strength is given. Sequences can lack the tags named with a protein.

Chains of the proteins cited; added tags and fusions are not shown. Lines headed by an entry give the natural chain unless they say otherwise; changes in a name come on top.
UniProt O00505: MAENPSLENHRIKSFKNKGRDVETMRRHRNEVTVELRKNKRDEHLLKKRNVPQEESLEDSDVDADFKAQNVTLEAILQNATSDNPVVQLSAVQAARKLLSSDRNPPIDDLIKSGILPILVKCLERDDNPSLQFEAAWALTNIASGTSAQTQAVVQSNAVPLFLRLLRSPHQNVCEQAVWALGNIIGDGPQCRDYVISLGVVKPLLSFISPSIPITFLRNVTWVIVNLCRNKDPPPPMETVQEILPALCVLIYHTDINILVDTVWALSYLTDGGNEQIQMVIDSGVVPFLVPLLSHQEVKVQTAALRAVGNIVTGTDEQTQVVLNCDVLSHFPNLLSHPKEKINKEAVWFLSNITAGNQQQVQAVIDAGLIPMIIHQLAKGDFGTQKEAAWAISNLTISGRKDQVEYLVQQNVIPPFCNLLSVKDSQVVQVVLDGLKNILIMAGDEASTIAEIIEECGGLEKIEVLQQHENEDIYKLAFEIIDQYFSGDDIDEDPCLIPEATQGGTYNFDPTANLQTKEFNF

How the values were obtained:
[1] = target: T1, FLAG-tagged NPAT C-region (1,031–1,427) (UniProt Q14207); experiment: co-IP; as a1, the pair co-expressed in the presence or absence of a third protein (KPNA3 or a KPNA3 fragment) to test whether it lowers the co-precipitate
T1 sequence: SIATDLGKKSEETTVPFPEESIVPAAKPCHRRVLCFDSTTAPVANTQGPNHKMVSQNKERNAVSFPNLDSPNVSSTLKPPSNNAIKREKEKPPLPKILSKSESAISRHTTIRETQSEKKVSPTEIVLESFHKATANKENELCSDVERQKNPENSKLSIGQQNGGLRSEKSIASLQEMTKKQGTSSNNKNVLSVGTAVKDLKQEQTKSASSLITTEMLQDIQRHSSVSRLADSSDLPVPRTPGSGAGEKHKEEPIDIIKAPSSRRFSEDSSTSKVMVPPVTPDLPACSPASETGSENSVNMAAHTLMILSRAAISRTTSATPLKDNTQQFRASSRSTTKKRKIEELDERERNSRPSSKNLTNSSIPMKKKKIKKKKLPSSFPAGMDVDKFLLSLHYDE

[2] = target: FLAG-tagged KPNA3 ARM 3–5; experiment: co-IP; two tagged proteins co-expressed in transfected cells (293T); lysis in 150 mM NaCl, 0.25 mM EDTA, 50 mM Tris pH 7.3, 1% sodium deoxycholate, 1% Triton X-100; IP with anti-FLAG M2 beads or protein A/G agarose resin; western blot
[3] = target: FLAG-tagged KPNA3 ΔARM3–5 mutant (UniProt O00505); experiment: as above

## GFP-ARM 3–5 fusion protein (domain or fragment)
[1]
  binding: binds

## Myc-ARM 1–5 (domain or fragment)
[1]
  binding: binds

## Myc-ARM 3–10 (domain or fragment)
[1]
  binding: binds

B1: GFP-NPAT C-region (domain or fragment, UniProt Q14207 1031-1427)
chain: T1 sequence
[2]
  binding: binds
[3]
  binding: no binding
